Our source for the log2 fold change values is the supplement of paper PMC12819154, “High-throughput peptide-centric local stability assay extends protein–ligand identification to membrane proteins, tissues and bacteria” (Nature Structural & Molecular Biology, 2025).

By UniProt entry, the sequences of proteins in these tests, tags left out. Where a name states a change or a piece, a line headed by the entry shows the natural chain unless it says otherwise.
UniProt P23025: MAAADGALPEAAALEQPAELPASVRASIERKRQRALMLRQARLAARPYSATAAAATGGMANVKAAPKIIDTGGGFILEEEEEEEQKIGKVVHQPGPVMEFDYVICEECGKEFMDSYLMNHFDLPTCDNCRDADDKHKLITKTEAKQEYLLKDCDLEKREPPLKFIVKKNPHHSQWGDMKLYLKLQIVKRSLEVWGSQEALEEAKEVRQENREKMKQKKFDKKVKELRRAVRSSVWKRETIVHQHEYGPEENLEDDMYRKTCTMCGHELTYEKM
UniProt P20618: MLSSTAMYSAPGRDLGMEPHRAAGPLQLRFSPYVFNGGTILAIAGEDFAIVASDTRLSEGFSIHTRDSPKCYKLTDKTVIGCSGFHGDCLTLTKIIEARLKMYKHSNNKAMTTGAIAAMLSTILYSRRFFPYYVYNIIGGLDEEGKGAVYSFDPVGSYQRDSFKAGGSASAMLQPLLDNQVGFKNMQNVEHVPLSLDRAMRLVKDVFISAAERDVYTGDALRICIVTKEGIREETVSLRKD
UniProt P20962: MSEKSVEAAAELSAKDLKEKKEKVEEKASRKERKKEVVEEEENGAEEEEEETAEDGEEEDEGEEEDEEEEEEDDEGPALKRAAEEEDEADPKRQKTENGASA
UniProt P15104, whole entry: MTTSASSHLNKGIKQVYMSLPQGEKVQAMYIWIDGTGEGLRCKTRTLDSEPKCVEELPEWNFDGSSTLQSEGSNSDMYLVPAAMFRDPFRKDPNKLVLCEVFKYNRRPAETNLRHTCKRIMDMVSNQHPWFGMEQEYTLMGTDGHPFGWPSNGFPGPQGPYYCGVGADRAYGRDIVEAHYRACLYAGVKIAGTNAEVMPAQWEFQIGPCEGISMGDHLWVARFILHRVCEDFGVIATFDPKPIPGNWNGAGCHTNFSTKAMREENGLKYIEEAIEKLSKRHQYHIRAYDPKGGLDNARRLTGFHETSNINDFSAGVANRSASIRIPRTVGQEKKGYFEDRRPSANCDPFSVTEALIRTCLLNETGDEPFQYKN
UniProt P21333, whole entry: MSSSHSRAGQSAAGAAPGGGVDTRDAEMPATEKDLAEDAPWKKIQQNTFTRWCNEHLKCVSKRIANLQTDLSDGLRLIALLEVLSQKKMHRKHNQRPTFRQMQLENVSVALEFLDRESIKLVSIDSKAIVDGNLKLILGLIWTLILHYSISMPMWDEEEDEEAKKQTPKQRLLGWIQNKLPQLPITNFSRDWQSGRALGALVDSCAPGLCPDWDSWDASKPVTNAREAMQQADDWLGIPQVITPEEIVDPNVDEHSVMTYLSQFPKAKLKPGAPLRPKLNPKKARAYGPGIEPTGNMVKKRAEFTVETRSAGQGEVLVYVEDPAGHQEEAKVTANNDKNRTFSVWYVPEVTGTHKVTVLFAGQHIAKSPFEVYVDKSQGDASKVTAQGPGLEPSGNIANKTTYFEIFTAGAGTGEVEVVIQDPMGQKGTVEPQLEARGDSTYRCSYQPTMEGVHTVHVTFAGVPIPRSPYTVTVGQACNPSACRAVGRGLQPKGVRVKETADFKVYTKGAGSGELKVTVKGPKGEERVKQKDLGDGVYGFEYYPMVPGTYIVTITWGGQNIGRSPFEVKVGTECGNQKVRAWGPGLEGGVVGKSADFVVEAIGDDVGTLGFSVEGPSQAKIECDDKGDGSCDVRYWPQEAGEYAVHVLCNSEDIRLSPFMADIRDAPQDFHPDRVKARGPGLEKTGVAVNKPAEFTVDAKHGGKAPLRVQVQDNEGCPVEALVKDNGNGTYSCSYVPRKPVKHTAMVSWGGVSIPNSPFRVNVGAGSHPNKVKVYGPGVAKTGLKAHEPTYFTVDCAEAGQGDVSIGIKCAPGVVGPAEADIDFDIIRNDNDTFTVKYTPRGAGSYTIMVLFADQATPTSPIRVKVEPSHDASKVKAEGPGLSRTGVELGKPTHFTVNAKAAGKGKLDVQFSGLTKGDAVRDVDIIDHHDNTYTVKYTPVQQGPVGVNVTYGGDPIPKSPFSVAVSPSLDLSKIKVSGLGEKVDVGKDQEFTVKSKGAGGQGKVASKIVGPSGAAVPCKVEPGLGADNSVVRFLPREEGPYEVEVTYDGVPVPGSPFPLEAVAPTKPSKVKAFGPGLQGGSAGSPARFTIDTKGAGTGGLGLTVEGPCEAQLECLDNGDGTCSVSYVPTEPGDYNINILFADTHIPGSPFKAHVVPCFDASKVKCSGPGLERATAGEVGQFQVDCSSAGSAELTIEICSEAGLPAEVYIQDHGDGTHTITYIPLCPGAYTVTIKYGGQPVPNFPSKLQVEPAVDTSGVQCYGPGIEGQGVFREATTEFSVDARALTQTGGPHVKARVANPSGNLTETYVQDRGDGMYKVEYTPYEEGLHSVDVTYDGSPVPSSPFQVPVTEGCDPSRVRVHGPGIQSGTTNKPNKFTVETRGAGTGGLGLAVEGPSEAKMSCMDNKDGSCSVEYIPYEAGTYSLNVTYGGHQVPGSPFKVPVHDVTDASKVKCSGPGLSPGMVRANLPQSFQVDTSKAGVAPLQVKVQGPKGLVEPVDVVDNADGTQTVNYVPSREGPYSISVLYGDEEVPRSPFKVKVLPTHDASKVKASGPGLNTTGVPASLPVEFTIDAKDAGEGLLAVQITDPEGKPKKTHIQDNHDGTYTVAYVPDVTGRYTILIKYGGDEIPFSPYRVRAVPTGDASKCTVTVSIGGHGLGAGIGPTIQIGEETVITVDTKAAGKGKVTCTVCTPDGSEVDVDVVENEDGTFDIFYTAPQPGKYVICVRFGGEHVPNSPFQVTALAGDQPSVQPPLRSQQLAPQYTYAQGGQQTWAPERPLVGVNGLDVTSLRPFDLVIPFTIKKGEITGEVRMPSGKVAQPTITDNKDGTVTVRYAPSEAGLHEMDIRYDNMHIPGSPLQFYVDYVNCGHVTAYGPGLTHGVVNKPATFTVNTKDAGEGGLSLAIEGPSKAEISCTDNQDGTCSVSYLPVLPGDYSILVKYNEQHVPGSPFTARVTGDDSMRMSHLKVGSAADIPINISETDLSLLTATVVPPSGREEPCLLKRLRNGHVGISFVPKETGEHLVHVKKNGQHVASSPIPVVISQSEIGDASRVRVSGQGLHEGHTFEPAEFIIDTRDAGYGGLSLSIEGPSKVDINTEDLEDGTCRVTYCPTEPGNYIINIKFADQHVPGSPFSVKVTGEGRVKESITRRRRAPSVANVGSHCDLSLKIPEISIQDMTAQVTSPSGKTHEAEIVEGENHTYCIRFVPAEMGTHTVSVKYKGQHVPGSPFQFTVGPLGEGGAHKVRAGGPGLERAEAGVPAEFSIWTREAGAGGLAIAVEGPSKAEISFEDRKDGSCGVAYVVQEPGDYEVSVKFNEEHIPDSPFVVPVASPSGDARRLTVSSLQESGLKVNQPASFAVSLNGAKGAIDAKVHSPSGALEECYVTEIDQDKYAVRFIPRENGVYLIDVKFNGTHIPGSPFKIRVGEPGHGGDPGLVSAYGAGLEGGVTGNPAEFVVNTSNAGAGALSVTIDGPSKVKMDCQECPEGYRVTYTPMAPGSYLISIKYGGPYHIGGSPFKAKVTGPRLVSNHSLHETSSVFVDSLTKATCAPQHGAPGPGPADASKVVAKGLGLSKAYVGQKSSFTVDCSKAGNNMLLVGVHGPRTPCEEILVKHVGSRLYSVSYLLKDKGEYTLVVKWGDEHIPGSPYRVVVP
UniProt P21695: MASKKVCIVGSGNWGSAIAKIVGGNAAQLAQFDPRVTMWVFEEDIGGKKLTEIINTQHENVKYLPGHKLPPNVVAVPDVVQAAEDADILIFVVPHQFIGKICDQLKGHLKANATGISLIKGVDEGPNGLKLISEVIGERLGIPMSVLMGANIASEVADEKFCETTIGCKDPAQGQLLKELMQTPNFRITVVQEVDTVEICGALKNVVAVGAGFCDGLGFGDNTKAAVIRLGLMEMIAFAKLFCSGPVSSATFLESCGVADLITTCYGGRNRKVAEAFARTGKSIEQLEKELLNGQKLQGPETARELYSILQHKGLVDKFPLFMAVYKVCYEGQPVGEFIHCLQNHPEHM
UniProt P17706: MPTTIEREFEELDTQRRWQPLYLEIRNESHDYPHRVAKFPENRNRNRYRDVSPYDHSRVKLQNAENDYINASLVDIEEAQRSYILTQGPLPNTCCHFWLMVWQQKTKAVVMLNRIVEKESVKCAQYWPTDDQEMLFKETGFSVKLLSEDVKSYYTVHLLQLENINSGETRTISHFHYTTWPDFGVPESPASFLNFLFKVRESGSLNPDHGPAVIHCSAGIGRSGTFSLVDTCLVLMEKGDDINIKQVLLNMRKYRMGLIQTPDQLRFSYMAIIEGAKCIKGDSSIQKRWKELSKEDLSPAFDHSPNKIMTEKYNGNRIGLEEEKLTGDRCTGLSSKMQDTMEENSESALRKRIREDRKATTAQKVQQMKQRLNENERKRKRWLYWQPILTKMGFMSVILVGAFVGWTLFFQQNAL
UniProt P17405: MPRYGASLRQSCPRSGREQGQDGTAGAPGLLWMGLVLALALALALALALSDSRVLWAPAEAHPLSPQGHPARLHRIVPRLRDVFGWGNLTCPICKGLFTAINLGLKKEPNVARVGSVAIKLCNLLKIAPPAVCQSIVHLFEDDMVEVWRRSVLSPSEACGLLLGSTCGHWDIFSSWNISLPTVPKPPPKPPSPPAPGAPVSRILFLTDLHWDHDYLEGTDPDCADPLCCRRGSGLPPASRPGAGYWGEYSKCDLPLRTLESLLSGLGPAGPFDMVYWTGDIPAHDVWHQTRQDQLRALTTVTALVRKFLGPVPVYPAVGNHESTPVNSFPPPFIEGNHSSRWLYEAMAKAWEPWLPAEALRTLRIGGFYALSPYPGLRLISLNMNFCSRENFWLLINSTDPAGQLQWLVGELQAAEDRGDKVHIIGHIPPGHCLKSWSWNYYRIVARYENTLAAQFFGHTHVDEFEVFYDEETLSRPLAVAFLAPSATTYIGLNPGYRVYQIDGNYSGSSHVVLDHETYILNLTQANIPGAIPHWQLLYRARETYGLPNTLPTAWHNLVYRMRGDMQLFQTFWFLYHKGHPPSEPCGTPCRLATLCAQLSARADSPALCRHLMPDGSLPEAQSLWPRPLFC
UniProt P14209: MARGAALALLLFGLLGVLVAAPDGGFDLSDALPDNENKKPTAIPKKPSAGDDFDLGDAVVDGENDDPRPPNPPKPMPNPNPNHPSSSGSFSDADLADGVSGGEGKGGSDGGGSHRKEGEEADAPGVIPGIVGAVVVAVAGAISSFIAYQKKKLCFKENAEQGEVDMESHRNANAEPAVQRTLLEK
UniProt P25205: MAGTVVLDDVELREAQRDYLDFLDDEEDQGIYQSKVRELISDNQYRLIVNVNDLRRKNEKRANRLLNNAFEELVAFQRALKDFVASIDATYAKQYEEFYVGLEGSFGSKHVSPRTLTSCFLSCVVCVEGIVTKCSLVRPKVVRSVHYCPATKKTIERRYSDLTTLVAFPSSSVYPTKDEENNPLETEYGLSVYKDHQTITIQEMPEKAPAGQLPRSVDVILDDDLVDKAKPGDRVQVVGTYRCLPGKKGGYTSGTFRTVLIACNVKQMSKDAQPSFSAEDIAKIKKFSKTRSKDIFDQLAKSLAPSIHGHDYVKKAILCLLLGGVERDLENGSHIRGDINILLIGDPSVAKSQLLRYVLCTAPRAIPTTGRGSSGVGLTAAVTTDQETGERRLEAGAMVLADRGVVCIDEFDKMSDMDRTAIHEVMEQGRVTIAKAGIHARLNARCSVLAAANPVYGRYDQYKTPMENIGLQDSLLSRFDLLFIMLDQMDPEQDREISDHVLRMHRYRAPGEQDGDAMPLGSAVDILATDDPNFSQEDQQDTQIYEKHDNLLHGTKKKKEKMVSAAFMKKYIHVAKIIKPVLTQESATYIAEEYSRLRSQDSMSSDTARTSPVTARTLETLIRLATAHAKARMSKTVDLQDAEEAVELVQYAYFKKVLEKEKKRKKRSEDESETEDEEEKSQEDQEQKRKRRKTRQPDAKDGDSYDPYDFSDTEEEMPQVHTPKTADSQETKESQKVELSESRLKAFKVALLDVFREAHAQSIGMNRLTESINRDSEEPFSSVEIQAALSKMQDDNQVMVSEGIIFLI
UniProt P15170, whole entry: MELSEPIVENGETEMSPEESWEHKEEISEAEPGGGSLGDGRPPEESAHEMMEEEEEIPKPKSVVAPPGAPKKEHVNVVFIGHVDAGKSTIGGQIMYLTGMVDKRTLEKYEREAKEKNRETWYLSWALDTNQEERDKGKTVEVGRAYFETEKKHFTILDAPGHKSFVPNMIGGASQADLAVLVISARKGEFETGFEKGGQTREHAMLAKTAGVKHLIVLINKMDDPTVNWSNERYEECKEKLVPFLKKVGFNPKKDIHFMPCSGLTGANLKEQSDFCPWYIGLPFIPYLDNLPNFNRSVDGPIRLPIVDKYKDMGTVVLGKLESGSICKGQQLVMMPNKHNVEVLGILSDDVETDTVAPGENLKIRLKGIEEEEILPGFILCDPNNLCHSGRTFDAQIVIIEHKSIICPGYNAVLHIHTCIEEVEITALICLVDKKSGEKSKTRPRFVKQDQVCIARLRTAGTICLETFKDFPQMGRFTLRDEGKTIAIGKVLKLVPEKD

The list shows a part of the results. Most entries show no effect beyond the scatter of the controls.

Compound in the assay: Cc1nc(Nc2ncc(C(=O)Nc3c(C)cccc3Cl)s2)cc(N2CCN(CCO)CC2)n1 [dasatinib]
Briefly: log2 fold change of tryptic peptide abundance, ligand vs vehicle (limited proteolysis) (log2 ratio); higher = more trypsin-susceptible (destabilized). As to conditions: ligand concentration: 5 uM; sample: K562 cleared lysate.
Regarding “EIF2S2 (peptide sequence: EYVTCHTCR, peptide start residue: 277) (UniProt P20042)”, the log2 fold change was found to be 0.115.

Turning to “DNMT1 (peptide sequence: NFVSFKR, peptide start residue: 1270) (UniProt P26358)”, the log2 fold change was -0.357. On to “SCP2 (peptide sequence: GSVLPNSDKK, peptide start residue: 483) (UniProt P22307)”, for which the log2 fold change is -0.195. On to “ACADS (peptide sequence: AEGDSWVLNGTK, peptide start residue: 172) (UniProt P16219)”, for which the log2 fold change was found to be 0.366. Consider “UniProt P17017 (peptide sequence: WEDQDIEDDHRNQGK, peptide start residue: 47)”, for which the log2 fold change came to 0.459. The same measure for “XPA (peptide sequence: LAARPYSATAAAATGGMANVK, peptide start residue: 43) (UniProt P23025)”: -0.0727; for “CREB1 (peptide sequence: KILNDLSSDAPGVPR, peptide start residue: 122) (UniProt P16220)”: -0.0299. As to “UniProt P14618 (peptide sequence: YRPRAPIIAVTR, peptide start residue: 444)”, the log2 fold change was found to be 0.781. Take “PSMB1 (peptide sequence: LSEGFSIHTR, peptide start residue: 57) (UniProt P20618)”: the log2 fold change is -0.4. For the target “PTMS (peptide sequence: KEKVEEK, peptide start residue: 21) (UniProt P20962)”, the log2 fold change was determined as 0.191.

For the target “GLUL (peptide sequence: YIEEAIEKLSKR, peptide start residue: 269) (UniProt P15104)”, the log2 fold change came to 0.271.

Consider “FLNA (peptide sequence: TGVELGKPTHFTVNAK, peptide start residue: 885) (UniProt P21333)”, for which the log2 fold change was found to be 0.367. For the target “TUBG1 (peptide sequence: KLANFIPWGPASIQVALSRK, peptide start residue: 344) (UniProt P23258)”, the log2 fold change is 0.628. For the target “GPD1 (peptide sequence: LTEIINTQHENVK, peptide start residue: 50) (UniProt P21695)”, the log2 fold change stood at 0.437. Regarding “PTPN2 (peptide sequence: IGLEEEKLTGDR, peptide start residue: 318) (UniProt P17706)”, the log2 fold change came out at 0.126. The same measure for “DDX6 (peptide sequence: GNEFEDYCLKR, peptide start residue: 95) (UniProt P26196)”: -0.137. The same measure for “SMPD1 (peptide sequence: VGSVAIKLCNLLK, peptide start residue: 114) (UniProt P17405)”: 0.323. Take “RPA1 (peptide sequence: GDTNIKPILQVINIR, peptide start residue: 17) (UniProt P27694)”: the log2 fold change is -0.699. Next, “NCK1 (peptide sequence: FDYVAQQEQELDIKKNER, peptide start residue: 11) (UniProt P16333)”: -0.787; “CD99 (peptide sequence: ENAEQGEVDMESHR, peptide start residue: 157) (UniProt P14209)”: -0.202; “SPN (peptide sequence: QGSLAMEELK, peptide start residue: 353) (UniProt P16150)”: -0.0644. Consider “MCM3 (peptide sequence: GSSGVGLTAAVTTDQETGER, peptide start residue: 372) (UniProt P25205)”, for which the log2 fold change came to 1.13. As to “GSPT1 (peptide sequence: MDDPTVNWSNERYEECKEK, peptide start residue: 222) (UniProt P15170)”, the log2 fold change is 0.0782. For “GOT1 (peptide sequence: TDDCHPWVLPVVK, peptide start residue: 43) (UniProt P17174)”, the log2 fold change was -0.309. The same measure for “NDUFS1 (peptide sequence: DFYMTDSISR, peptide start residue: 693) (UniProt P28331)”: 0.345; for “CALR (peptide sequence: FYGDEEKDK, peptide start residue: 56) (UniProt P27797)”: 0.262; for “PRKCSH (peptide sequence: DMEESIR, peptide start residue: 386) (UniProt P14314)”: 0.143. Next, “SFPQ (peptide sequence: REEEMMIR, peptide start residue: 574) (UniProt P23246)”: 0.447.
